Measurements reported in PubChem BioAssay AID1259254 (NCATS, 2017).
Shown is one part, drawn at random, of about 59,000 reagents. About 1,550 of all reagents (2.6%) count as active. 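G2 share is only a proxy for re-replication; each gene was hit by three separate siRNAs, and active genes were retested.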 Unmarked entries are inactive. The numbers tell different reagents against one gene apart. Further read-outs or replicates are left out here. Reagent sequences are not shown. The record does not give: the amount of reagent.

- Aim: 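Gene knock-downs that lead to re-replication, shown by excess G2 DNA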 (primary screen)
- Cells: human HCT116 colorectal cancer cells
- Knock-down reagent: single siRNA against human genes
- Time to read-out: 3 days
- Detection: 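Nuclei stained with Hoechst and imaged; cell-cycle phase assigned by DNA content; G2 share scaled per plate, non-targeting siRNA 0%, GMNN siRNA 100%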
- Direction: G2 robust z-score: higher = more G2 cells, more excess DNA replication
- Call rule: 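Active siRNAs have a G2 robust z of 5 or more median absolute deviations over the median, which in these data means about 38% or higher of GMNN control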

G2 robust z-score, by target and reagent
UBASH3A (ubiquitin associated and SH3 domain containing A): #1 1.63; #2 3.23; #3 2.09
MS4A14 (membrane spanning 4-domains A14): #1 -0.795; #2 0.936; #3 -0.358
MTCP1 (mature T cell proliferation 1): #1 1.49; #2 0.215; #3 3.92
GALNT4 (polypeptide N-acetylgalactosaminyltransferase 4): #1 -1.28; #2 1.88; #3 -0.871
RAB34 (RAB34, member RAS oncogene family): #1 1.6; #2 -1.1; #3 -0.713
IFNGR2 (interferon gamma receptor 2): #1 -1.54; #2 0.266; #3 -0.226
SNCG (synuclein gamma): #1 1.34; #2 -0.0487; #3 -1.15
ZNF83 (zinc finger protein 83): #1 -0.555; #2 -0.894; #3 2.06; #4 -0.0649; #5 -0.0866; #6 -0.338
LOC440981 (retired record): #1 0.313; #2 1.6; #3 5.08 (active)
ZNF268 (zinc finger protein 268): #1 1.09; #2 0.831; #3 -0.97
TMEM245 (transmembrane protein 245): #1 1.34; #2 -0.339; #3 0.112
ASAH1 (N-acylsphingosine amidohydrolase 1): #1 -0.842; #2 -1.08; #3 0.836
NKAIN2 (sodium/potassium transporting ATPase interacting 2): #1 -0.183; #2 -0.224; #3 -0.0729
CRHR2 (corticotropin releasing hormone receptor 2): #1 2.69; #2 1.43; #3 5.57 (active)
XPO1 (exportin 1): #1 -0.463; #2 1.04; #3 -0.236
S1PR3 (sphingosine-1-phosphate receptor 3): #1 1.25; #2 -0.268; #3 -0.852; #4 -0.433; #5 0.132; #6 -0.437
OR6K6 (olfactory receptor family 6 subfamily K member 6): #1 -0.672; #2 -0.815; #3 -0.158
TMEM81 (transmembrane protein 81): #1 0.88; #2 -0.246; #3 0.549
SIK3 (SIK family kinase 3): #1 0.622; #2 -0.407; #3 0.815
IMMT (inner membrane mitochondrial protein): #1 -0.251; #2 0.651; #3 -0.347
KIF4A (kinesin family member 4A): #1 0.29; #2 1.15; #3 3.29

Looked up above.
IMMT (inner membrane mitochondrial protein) #1, G2 robust z-score = -0.251
ASAH1 (N-acylsphingosine amidohydrolase 1) #2, G2 robust z-score: -1.08
Under “G2 robust z-score”, OR6K6 (olfactory receptor family 6 subfamily K member 6) #1 has -0.672
Result for S1PR3 (sphingosine-1-phosphate receptor 3) #5 under “G2 robust z-score”: 0.132
